# Source: PMC7819943, “Rice protein-binding microarrays: a tool to detect cis-acting elements near promoter regions in rice”
# The chains behind the UniProt entries cited, without tags or fusion partners.
# UniProt Q0JBA9, entry or part of it: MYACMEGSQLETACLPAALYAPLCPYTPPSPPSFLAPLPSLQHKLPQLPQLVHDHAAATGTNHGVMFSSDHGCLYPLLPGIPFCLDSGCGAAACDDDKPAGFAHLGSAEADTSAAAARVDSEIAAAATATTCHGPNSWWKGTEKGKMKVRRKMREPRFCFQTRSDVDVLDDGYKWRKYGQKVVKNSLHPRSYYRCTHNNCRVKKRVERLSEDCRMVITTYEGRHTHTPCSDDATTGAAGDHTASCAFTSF
# The list shows a part of the results.
# Biological target: OsWRKY34 (Oryza sativa, UniProt Q0JBA9 1-250)
# Experiment: protein-binding microarray (RPBM); PBS, 2% BSA, 51.3 ng/ul salmon testes DNA, 50 uM zinc acetate, 200 nM TF, 25 C, 1 h; high values mean tight binding
# Conditions: protein: recombinant; tags: N-terminal polyhistidine and DsRed monomer fusion (pET32a); label: CyDye5-dUTP incorporated in the synthesized complementary strand; 3' TTTTT single-stranded linker to array surface; dsDNA, one strand shown
# In short: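 A custom Agilent array was converted to double-stranded form by primer extension with Cy5-dUTP and blocked with 2% BSA. Protein at 200 nM in PBS with 2% BSA, salmon testes DNA and 50 µM zinc acetate was applied for 1 h at 25 °C, followed by washing. The proteins were polyhistidine–DsRed N-terminal fusions of transcription factors, expressed in E. coli BL21-CodonPlus and Ni–NTA-purified. The binding signal is per-feature fluorescence intensity (arbitrary units) from an Axon 4000B scanner.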
row,Sequence,binding signal
1,CAGCTTTCATCACCACAGCACTACTACTTGCATGACTCAACGGAGTCACCTAGTGCAG,13800 fluorescence intensity (a.u.)
2,GAATTGCTTCTTTTTCTTCCATCCTCCTTCAGGTATCATTCGGAGTCACCTAGTGCAG,9350 fluorescence intensity (a.u.)
3,CTTCTTGTTGCCTCTTGCCTCCTTCTTCTTCTTCTTCGTCCGGAGTCACCTAGTGCAG,8600 fluorescence intensity (a.u.)
4,TATCCGTTCGCGTCCCCGCCCTCGCTTCGCCGCGGCAATGCGGAGTCACCTAGTGCAG,9720 fluorescence intensity (a.u.)
5,ACCTGCGAGTTATTCAGCTCATTTTTCCTGCCAAACATTACGGAGTCACCTAGTGCAG,8440 fluorescence intensity (a.u.)
6,CTCGCTCACTCGGTCAGCTGCACACACACTGCACTTCGGCCGGAGTCACCTAGTGCAG,9820 fluorescence intensity (a.u.)
7,GCACGGAGCCACGGACGGGCTCCCTACTTTTCTCGAGTTTCGGAGTCACCTAGTGCAG,8740 fluorescence intensity (a.u.)
8,TGTTCTGGATGCTGTGTTGTTAAGGTACAACTTTTTCTTACGGAGTCACCTAGTGCAG,9190 fluorescence intensity (a.u.)
9,AACTGCTTGCGCATCCGTATCAAACAGCTTCTTTTCATCACGGAGTCACCTAGTGCAG,8970 fluorescence intensity (a.u.)
10,CTCCCGCATGCCCTTGATTTTCCACAACTGATTTTATTCCCGGAGTCACCTAGTGCAG,11700 fluorescence intensity (a.u.)
11,CCCCTGTCCGTCGCCGCCACCGCCGCCGCCGCCGGCGGCGCGGAGTCACCTAGTGCAG,9120 fluorescence intensity (a.u.)
12,GCCTATTTTGTTGTTGTCCTGCACGATTTGAAAACGTTAGCGGAGTCACCTAGTGCAG,8192 fluorescence intensity (a.u.)
13,TGAAATTTCTACTGTCATGCTTCCTTGTCCCATTACAACACGGAGTCACCTAGTGCAG,8610 fluorescence intensity (a.u.)
14,AATTTCTGTTTTATTTCCTTTCTCTCGTCACCAAATTTACCGGAGTCACCTAGTGCAG,9050 fluorescence intensity (a.u.)
15,GGTCTGACATGTGGGCCCCACATGTCAGTGGGCCCATATTCGGAGTCACCTAGTGCAG,9000 fluorescence intensity (a.u.)
16,AGAAGTTAGTAGTGGAGGGTTGTGGTTGAATGAGTAGTAGCGGAGTCACCTAGTGCAG,8550 fluorescence intensity (a.u.)
17,GGCGTTCCTGCCCAACCCAGCCCTGTTGCCATCCCTACGACGGAGTCACCTAGTGCAG,8120 fluorescence intensity (a.u.)
18,CATTTTTTTTATTGTGTTACCATACAGTTTTGCTTTCTCGCGGAGTCACCTAGTGCAG,10400 fluorescence intensity (a.u.)
19,GCCGACCCATCACCGTCGTTGCCGCCATTTTCCATTATCGCGGAGTCACCTAGTGCAG,8800 fluorescence intensity (a.u.)
20,TCCGGTTGTTTGCCGTGGCACTTCCTTTCTCCCTATTGGCCGGAGTCACCTAGTGCAG,8260 fluorescence intensity (a.u.)
21,AAACCTGTGGATGGCGGGGCGGTCGTGCGGCGGGAGGAGGCGGAGTCACCTAGTGCAG,8600 fluorescence intensity (a.u.)
22,CAAGTACCCAACCCGCGTCGTCATCGTCGTCTTCCTACTTCGGAGTCACCTAGTGCAG,8430 fluorescence intensity (a.u.)
23,GGTAGCATACCAAAGTCCATAACTCTCTAGCTAATTAATCCGGAGTCACCTAGTGCAG,8320 fluorescence intensity (a.u.)

# Two entries from above in another layout:
row | Sequence | binding signal
5 | ACCTGCGAGTTATTCAGCTCATTTTTCCTGCCAAACATTACGGAGTCACCTAGTGCAG | 8440 fluorescence intensity (a.u.)
18 | CATTTTTTTTATTGTGTTACCATACAGTTTTGCTTTCTCGCGGAGTCACCTAGTGCAG | 10400 fluorescence intensity (a.u.)
